Data reported in paper PMC7072837.
These are yes or no findings as the source states them, for the method shown. In cells and extracts the contact can be indirect. Some entries that bind do so weakly or less than the wild type.

By UniProt entry, the sequences of proteins in these tests, tags left out. Residues count along the entry.
UniProt P27708: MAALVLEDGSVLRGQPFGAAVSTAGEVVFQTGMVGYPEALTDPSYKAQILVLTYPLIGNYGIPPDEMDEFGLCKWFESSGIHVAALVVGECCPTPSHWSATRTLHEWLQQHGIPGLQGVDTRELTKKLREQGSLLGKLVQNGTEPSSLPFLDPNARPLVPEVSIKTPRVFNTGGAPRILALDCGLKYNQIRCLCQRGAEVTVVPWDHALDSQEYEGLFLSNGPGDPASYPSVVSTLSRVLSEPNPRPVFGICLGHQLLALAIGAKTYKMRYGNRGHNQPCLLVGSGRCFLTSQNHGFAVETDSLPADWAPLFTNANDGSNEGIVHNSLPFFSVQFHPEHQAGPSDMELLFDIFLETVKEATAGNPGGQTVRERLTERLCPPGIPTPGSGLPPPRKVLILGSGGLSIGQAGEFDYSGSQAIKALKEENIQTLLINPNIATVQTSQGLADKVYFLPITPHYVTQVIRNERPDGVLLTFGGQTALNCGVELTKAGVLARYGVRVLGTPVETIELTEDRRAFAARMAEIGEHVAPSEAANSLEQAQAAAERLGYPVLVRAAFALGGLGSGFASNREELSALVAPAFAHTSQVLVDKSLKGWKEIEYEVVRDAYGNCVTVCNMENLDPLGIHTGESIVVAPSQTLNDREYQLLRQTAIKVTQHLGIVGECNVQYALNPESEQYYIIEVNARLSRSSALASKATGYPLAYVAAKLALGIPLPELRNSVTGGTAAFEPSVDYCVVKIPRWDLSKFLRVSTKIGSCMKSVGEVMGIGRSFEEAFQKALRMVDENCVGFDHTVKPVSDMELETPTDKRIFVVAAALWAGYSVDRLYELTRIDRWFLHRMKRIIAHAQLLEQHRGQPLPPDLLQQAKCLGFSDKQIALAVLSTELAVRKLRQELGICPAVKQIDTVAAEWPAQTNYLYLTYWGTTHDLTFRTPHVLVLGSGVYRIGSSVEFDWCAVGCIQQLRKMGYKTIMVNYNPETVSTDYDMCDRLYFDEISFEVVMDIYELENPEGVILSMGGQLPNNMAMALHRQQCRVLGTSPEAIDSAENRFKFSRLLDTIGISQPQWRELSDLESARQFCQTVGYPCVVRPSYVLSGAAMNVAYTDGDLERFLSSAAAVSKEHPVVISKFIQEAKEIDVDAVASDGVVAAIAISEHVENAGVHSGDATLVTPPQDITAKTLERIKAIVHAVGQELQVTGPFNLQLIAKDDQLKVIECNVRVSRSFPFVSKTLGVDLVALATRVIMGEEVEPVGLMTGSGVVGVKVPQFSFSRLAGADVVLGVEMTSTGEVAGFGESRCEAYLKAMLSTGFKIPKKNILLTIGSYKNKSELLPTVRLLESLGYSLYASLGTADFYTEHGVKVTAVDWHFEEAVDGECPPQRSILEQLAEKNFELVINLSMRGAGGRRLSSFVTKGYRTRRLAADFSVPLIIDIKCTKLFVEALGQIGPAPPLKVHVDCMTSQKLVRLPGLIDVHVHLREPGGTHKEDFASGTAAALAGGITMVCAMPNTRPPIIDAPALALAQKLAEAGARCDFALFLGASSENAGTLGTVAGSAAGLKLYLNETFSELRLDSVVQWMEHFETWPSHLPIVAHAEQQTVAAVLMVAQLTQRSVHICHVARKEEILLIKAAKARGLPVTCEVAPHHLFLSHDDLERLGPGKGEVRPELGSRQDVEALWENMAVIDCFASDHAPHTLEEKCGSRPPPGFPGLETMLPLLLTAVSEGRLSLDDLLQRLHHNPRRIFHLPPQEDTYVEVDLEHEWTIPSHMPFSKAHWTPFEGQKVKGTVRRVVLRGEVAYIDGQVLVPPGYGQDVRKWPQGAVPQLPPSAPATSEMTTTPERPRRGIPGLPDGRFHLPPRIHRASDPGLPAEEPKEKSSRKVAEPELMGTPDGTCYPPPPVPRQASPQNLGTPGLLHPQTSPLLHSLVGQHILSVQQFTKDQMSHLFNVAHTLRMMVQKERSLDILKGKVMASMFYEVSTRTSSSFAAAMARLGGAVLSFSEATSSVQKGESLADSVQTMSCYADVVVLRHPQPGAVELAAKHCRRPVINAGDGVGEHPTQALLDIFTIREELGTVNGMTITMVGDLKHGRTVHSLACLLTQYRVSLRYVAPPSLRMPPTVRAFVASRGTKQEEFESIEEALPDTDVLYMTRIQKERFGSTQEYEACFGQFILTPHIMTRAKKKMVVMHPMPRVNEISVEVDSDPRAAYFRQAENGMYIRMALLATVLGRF
UniProt Q66478, residues 566-862: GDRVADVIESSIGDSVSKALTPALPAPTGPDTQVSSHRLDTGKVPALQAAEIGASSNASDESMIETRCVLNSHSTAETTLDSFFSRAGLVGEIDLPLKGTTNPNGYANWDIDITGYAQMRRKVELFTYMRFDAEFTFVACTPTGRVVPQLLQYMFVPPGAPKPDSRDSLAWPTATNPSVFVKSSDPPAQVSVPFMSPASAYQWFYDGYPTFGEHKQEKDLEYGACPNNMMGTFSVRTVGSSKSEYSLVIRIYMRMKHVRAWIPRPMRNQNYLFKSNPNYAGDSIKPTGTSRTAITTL

Target: N-FLAG-tagged CAD (carbamoyl-phosphate synthetase 2, aspartate transcarbamylase, and dihydroorotase) (UniProt P27708)
Test: co-IP; Vero cells transfected with N-FLAG-CAD for 48 h, then infected with EV71 at MOI 1.25 for 24 h; immunoprecipitation with anti-FLAG, blot with anti-VP1

With “native VP1 protein of EV71 (from infection) (from UniProt Q66478 566-862)” the binding was “binds”.
